1 molecule from paper doi:10.1101/2021.07.07.451493 can be followed below.

Chains of the proteins cited; added tags and fusions are not shown. Lines headed by an entry give the natural chain unless they say otherwise; changes in a name come on top. A line that says so, or that is headed by a name, gives the form on record, which may keep a tag or linker.
APOE4, endogenous in APOE4/4 human postmortem brain (human (endogenous in postmortem brain)) (P02649, form named): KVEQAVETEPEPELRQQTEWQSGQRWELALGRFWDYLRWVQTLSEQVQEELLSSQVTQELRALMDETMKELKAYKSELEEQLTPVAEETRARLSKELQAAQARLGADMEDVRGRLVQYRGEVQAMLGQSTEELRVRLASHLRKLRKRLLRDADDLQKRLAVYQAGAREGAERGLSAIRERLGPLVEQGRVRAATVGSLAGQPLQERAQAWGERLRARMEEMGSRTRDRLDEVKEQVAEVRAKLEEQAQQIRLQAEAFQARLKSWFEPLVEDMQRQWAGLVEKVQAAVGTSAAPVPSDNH

In this assay the target is APOE4, endogenous in APOE4/4 human postmortem brain (human (endogenous in postmortem brain)) (UniProt P02649). Kind of assay: co-IP.

These are yes or no findings as the source states them, for the method shown. In cells and extracts the contact can be indirect. Some entries that bind do so weakly or less than the wild type.

B1: glypican-4 (GPC-4), endogenous in human postmortem brain (protein, UniProt O75487 19-529)
chain: ALLAAELKSKSCSEVRRLYVSKGFNKNDAPLHEINGDHLKICPQGSTCCSQEMEEKYSLQSKDDFKSVVSEQCNHLQAVFASRYKKFDEFFKELLENAEKSLNDMFVKTYGHLYMQNSELFKDLFVELKRYYVVGNVNLEEMLNDFWARLLERMFRLVNSQYHFTDEYLECVSKYTEQLKPFGDVPRKLKLQVTRAFVAARTFAQGLAVAGDVVSKVSVVNPTAQCTHALLKMIYCSHCRGLVTVKPCYNYCSNIMRGCLANQGDLDFEWNNFIDAMLMVAERLEGPFNIESVMDPIDVKISDAIMNMQDNSVQVSQKVFQGCGPPKPLPAGRISRSISESAFSARFRPHHPEERPTTAAGTSLDRLVTDVKEKLKQAKKFWSSLPSNVCNDERMAAGNGNEDDCWNGKGKSRYLFAVTGNGLANQGNNPEVQVDTSKPDILILRQIMALRVMTSKMKNAYNGNDVDFFDISDESSGEGSGSGCEYQQCPSEFDYNATDHAGKSANEKADS
Consider B1, for which the binding entry is reported as “binds”.
